# Test results: patent US20220280543A1, “DDX17 AND NLRC4 TARGETING FOR INFLAMMATORY DISEASES” (University of Virginia Patent Foundation, priority 2019, published 2022)
# “Also recorded” adds a separate entry of the source. At least one compound was matched to its structure with a doubt left.
# Experiments:
# Format in all cases: cell-based, mouse
# [1] = tested on: NLRC4; test: Flagellin induced NLRC4 oligomerization in BMDM, Native PAGE; conditions: wild type BMDM, indicated dose for 1 hour, flagellin 3 μg/ml (FIG. 29)
# [2] = tested on: NLRC4 inflammasome; test: Flagellin-induced caspase-1 activation in wild type BMDM pre-treated with NRTIs, immunoblot
# Procedure: FIG. 27. NRTI block Flagellin induced NLRC4 inflammasome in BMDM. Wild type BMDM cells were pre-treated with exemplary NRTIs (D4T, 3TC) at 100 μM for 1 hour, and then stimulated with flagellin transfection (3 μg/ml). Supernatant and cell lysate were collected for Caspase-1 detection. […] The caspase-1 (p20) bands are indicated with black arrow.
# FIG. 28. NRTI (3TC) blocks flagellin-induced NLRC4 inflammasome in a dose dependent manner. Wild type BMDM cell were pre-treated with indicated dose of NRTI (3TC) for 1 hour, and then stimulated with Flagellin transfection (3 μg/ml). Supernatants were collected for Caspase-1 detection. […] The caspase-1 (p20) bands are indicated with black arrow.
# FIG. 31. Modified NRTIs (K8, K9) block flagellin-induced NLRC4 inflammasome in BMDM. Wild type BMDM cell were pre-treated with regular NRTI (D4T, 3TC), the modified NRTIs 3-Methyl-3TC (K9) or 2-Ethyl-AZT (K8), or NLRP3 inhibitors (MCC950, CY-09) for 1 hour, and then stimulated with flagellin transfection (3 μg/ml). Supernatants were collected for secreted caspase-1 detection. […] The caspase-1 (p20) bands are indicated with black arrow.
# Nucleoside reverse transcriptase inhibitors (NRTIs) are HIV therapeutics that inhibit retrovirus replication. We have previously shown that NRTIs inhibit P2X7-mediated NLRP3 inflammasome activation by an endogenous retroelement Alu RNA (SEQ ID NO: 86). […]
# [3] = tested on: IL-1β; test: Flagellin induced IL-1β production/release in BMDM, immunoblot of supernatant; conditions: wild type BMDM, indicated dose for 1 hour, flagellin 3 μg/ml (FIG. 30)
smiles,measurement,setting,value
"Nc1ccn([C@@H]2CS[C@H](CO)O2)c(=O)n1 [3TC, 2′,3′-dideoxy-3′-thiacytidine-4-Amino-1-[(2R,5S)-2-(hydroxymethyl)-1,3-oxathiolan-5-yl]-1,2-dihydropyrimidin-2-one]",Flagellin induced NLRC4 oligomerization,[1],dose-dependently inhibited
same,flagellin induced caspase-1 activation,"[2]; NRTI at 100 μM for 1 hour, flagellin transfection 3 μg/ml (FIG. 27)",blocked; also recorded: reduced
same,"flagellin-induced Caspase-1 activation, dose dependence","[2]; indicated dose for 1 hour, flagellin 3 μg/ml (FIG. 28)",dose-dependent inhibition; also recorded: inhibited flagellin-induced Caspase-1 activation in a dose dependent manner
same,flagellin induced IL-1β production/release,[3],inhibited by 3TC in a dose dependent manner
